{
  "source": "patent US20080287430A1",
  "about": "“Furan Compounds Useful As Ep1 Receptor Antagonists” (priority 2005, published 2008)",
  "biological_target": "T1, human EP3 receptor (Homo sapiens, UniProt P43115)",
  "T1 construct": "expressed in transfected cells; host or cells: CHO-K1",
  "T1 sequence (P43115 1-390)": "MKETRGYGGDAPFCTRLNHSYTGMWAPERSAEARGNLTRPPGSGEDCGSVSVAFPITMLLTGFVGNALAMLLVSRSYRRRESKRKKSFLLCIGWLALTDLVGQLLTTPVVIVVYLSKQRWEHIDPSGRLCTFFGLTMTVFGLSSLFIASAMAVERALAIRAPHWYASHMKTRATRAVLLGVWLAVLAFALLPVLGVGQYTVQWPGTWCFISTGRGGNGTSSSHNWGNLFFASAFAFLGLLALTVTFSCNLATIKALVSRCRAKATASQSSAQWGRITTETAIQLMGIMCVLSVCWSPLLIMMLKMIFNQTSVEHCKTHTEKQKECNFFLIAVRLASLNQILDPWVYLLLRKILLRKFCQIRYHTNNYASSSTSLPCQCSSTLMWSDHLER",
  "test": "human EP3 calcium mobilisation assay",
  "format": "cell-based",
  "settings": "free bases or sodium salts; for functional pKi value: human EP3, PGE2-induced calcium mobilisation in CHO-K1 cells, averages of a number of experiments; for activity in a functional assay: human EP3 calcium mobilisation assay",
  "note": "Some entries share one result that the patent states for a list of compounds.",
  "data": [
    {"smiles": "CCCOc1ccc(Cl)cc1Cc1ccc(C(=O)[O-])o1.[Na+]", "note": "[Example 1, Sodium 5-{[5-chloro-2-(propyloxy)phenyl]methyl}-2-furancarboxylate]", "values": [
      {"measurement": "functional pKi value", "value": "≤ 6.5"}
    ]},
    {"smiles": "CC(C)Oc1ccc(Cl)cc1Cc1ccc(C(=O)[O-])o1.[Na+]", "note": "[Example 2, Sodium 5-({5-chloro-2-[(1-methylethyl)oxy]phenyl}methyl)-2-furancarboxylate]", "values": [
      {"measurement": "functional pKi value", "value": "≤ 6.5"},
      {"measurement": "activity in a functional assay", "value": "no activity"}
    ]},
    {"smiles": "O=C([O-])c1ccc(Cc2cc(Cl)ccc2OCC2CC2)o1.[Na+]", "note": "[Example 3, Sodium 5-({5-chloro-2-[(cyclopropylmethyl)oxy]phenyl}methyl)-2-furancarboxylate]", "values": [
      {"measurement": "functional pKi value", "value": "≤ 6.5"},
      {"measurement": "activity in a functional assay", "value": "no activity"}
    ]},
    {"smiles": "CCC(CC)Oc1ccc(Cl)cc1Cc1ccc(C(=O)[O-])o1.[Na+]", "note": "[Example 4, Sodium 5-({5-chloro-2-[(1-ethylpropyl)oxy]phenyl}methyl)-2-furancarboxylate]", "values": [
      {"measurement": "functional pKi value", "value": "≤ 6.5"}
    ]},
    {"smiles": "O=C([O-])c1ccc(Cc2cc(Cl)ccc2OC2CCCC2)o1.[Na+]", "note": "[Example 5, Sodium 5-{[5-chloro-2-(cyclopentyloxy)phenyl]methyl}-2-furancarboxylate]", "values": [
      {"measurement": "functional pKi value", "value": "≤ 6.5"}
    ]},
    {"smiles": "CCC(CC)COc1ccc(Cl)cc1Cc1ccc(C(=O)[O-])o1.[Na+]", "note": "[Example 7, Sodium 5-({5-chloro-2-[(2-ethylbutyl)oxy]phenyl}methyl)-2-furancarboxylate]", "values": [
      {"measurement": "functional pKi value", "value": "≤ 6.5"}
    ]},
    {"smiles": "COCCOc1ccc(Cl)cc1Cc1ccc(C(=O)[O-])o1.[Na+]", "note": "[Example 8, Sodium 5-[(5-chloro-2-{[2-(methyloxy)ethyl]oxy}phenyl)methyl]-2-furancarboxylate]", "values": [
      {"measurement": "functional pKi value", "value": "≤ 6.5"},
      {"measurement": "activity in a functional assay", "value": "no activity"}
    ]},
    {"smiles": "Cc1cc(COc2ccc(Cl)cc2Cc2ccc(C(=O)[O-])o2)on1.[Na+]", "note": "[Example 9, Sodium 5-[(5-chloro-2-{[(3-methyl-5-isoxazolyl)methyl]oxy}phenyl)methyl]-2-furancarboxylate]", "values": [
      {"measurement": "functional pKi value", "value": "≤ 6.5"},
      {"measurement": "activity in a functional assay", "value": "no activity"}
    ]},
    {"smiles": "CC(C)COc1ccc(Cl)cc1Cc1ccc(C(=O)[O-])o1.[Na+]", "note": "[Example 10, Sodium 5-({5-chloro-2-[(2-methylpropyl)oxy]phenyl}methyl)-2-furancarboxylate]", "values": [
      {"measurement": "functional pKi value", "value": "≤ 6.5"},
      {"measurement": "activity in a functional assay", "value": "no activity"}
    ]},
    {"smiles": "CC(C)CCOc1ccc(Cl)cc1Cc1ccc(C(=O)[O-])o1.[Na+]", "note": "[Example 11, Sodium 5-({5-chloro-2-[(3-methylbutyl)oxy]phenyl}methyl)-2-furancarboxylate]", "values": [
      {"measurement": "functional pKi value", "value": "≤ 6.5"}
    ]},
    {"smiles": "O=C([O-])c1ccc(Cc2cc(Cl)ccc2OCCc2ccccc2)o1.[Na+]", "note": "[Example 12, Sodium 5-({5-chloro-2-[(2-phenylethyl)oxy]phenyl}methyl)-2-furancarboxylate]", "values": [
      {"measurement": "functional pKi value", "value": "≤ 6.5"}
    ]},
    {"smiles": "Cc1cc(C(=O)[O-])oc1Cc1cc(Cl)ccc1OCC(C)C.[Na+]", "note": "[Example 14, Sodium 5-({5-chloro-2-[(2-methylpropyl)oxy]phenyl}methyl)-4-methyl-2-furancarboxylate]", "values": [
      {"measurement": "functional pKi value", "value": "≤ 6.5"}
    ]},
    {"smiles": "Cc1cc(C(=O)[O-])oc1Cc1cc(Cl)ccc1OCc1ccccc1.[Na+]", "note": "[Example 15, Sodium 5-({5-chloro-2-[(phenylmethyl)oxy]phenyl}methyl)-4-methyl-2-furancarboxylate]", "values": [
      {"measurement": "functional pKi value", "value": "≤ 6.5"}
    ]},
    {"smiles": "O=C([O-])Cc1ccc(Cc2cc(Cl)ccc2OCc2ccccc2)o1.[Na+]", "note": "[Example 16, Sodium [5-({5-chloro-2-[(phenylmethyl)oxy]phenyl}methyl)-2-furanyl]acetate]", "values": [
      {"measurement": "functional pKi value", "value": "≤ 6.5"}
    ]},
    {"smiles": "O=C([O-])c1ccc(Cc2cc(Cl)ccc2OCc2ccncc2Cl)o1.[Na+]", "note": "[Example 17, Sodium 5-[(5-chloro-2-{[(3-chloro-4-pyridinyl)methyl]oxy}phenyl)methyl]-2-furancarboxylate]", "values": [
      {"measurement": "functional pKi value", "value": "≤ 6.5"},
      {"measurement": "activity in a functional assay", "value": "no activity"}
    ]},
    {"smiles": "O=C([O-])c1ccc(Cc2cc(Cl)ccc2OCc2ccccc2)o1.[Na+]", "note": "[Example 18, Sodium 5-({5-chloro-2-[(phenylmethyl)oxy]phenyl}methyl)-2-furancarboxylate]", "values": [
      {"measurement": "functional pKi value", "value": "≤ 6.5"}
    ]},
    {"smiles": "O=C([O-])c1ccc(Cc2cc(Cl)ccc2OCc2ccc(F)cc2F)o1.[Na+]", "note": "[Example 19, Sodium 5-[(5-chloro-2-{[(2,4-difluorophenyl)methyl]oxy}phenyl)methyl]-2-furancarboxylate]", "values": [
      {"measurement": "functional pKi value", "value": "≤ 6.5"},
      {"measurement": "activity in a functional assay", "value": "no activity"}
    ]},
    {"smiles": "O=C([O-])c1ccc(Cc2cc(Cl)ccc2OCc2c(F)cc(F)cc2F)o1.[Na+]", "note": "[Example 20, Sodium 5-[(5-chloro-2-{[(2,4,6-trifluorophenyl)methyl]oxy}phenyl)methyl]-2-furancarboxylate]", "values": [
      {"measurement": "functional pKi value", "value": "≤ 6.5"},
      {"measurement": "activity in a functional assay", "value": "no activity"}
    ]},
    {"smiles": "O=C([O-])c1ccc(Cc2cc(Cl)ccc2OCc2ccc(F)cc2)o1.[Na+]", "note": "[Example 21, Sodium 5-[(5-chloro-2-{[(4-fluorophenyl)methyl]oxy}phenyl)methyl]-2-furancarboxylate]", "values": [
      {"measurement": "functional pKi value", "value": "≤ 6.5"}
    ]},
    {"smiles": "O=C([O-])c1ccc(Cc2cc(Cl)ccc2OCc2ccc(F)cc2Cl)o1.[Na+]", "note": "[Example 22, Sodium 5-[(5-chloro-2-{[(2-chloro-4-fluorophenyl)methyl]oxy}phenyl)methyl]-2-furancarboxylate]", "values": [
      {"measurement": "functional pKi value", "value": "≤ 6.5"}
    ]},
    {"smiles": "O=C([O-])c1ccc(Cc2cc(Cl)ccc2OCc2ccc(Cl)cc2F)o1.[Na+]", "note": "[Example 23, Sodium 5-[(5-chloro-2-{[(4-chloro-2-fluorophenyl)methyl]oxy}phenyl)methyl]-2-furancarboxylate]", "values": [
      {"measurement": "functional pKi value", "value": "≤ 6.5"}
    ]},
    {"smiles": "O=C([O-])c1ccc(Cc2cc(Cl)ccc2OCc2cc(F)c(F)c(F)c2)o1.[Na+]", "note": "[Example 24, Sodium 5-[(5-chloro-2-{[(3,4,5-trifluorophenyl)methyl]oxy}phenyl)methyl]-2-furancarboxylate]", "values": [
      {"measurement": "functional pKi value", "value": "≤ 6.5"}
    ]},
    {"smiles": "O=C([O-])c1ccc(Cc2cc(Cl)ccc2OCc2cc(F)c(F)cc2F)o1.[Na+]", "note": "[Example 25, Sodium 5-[(5-chloro-2-{[(2,4,5-trifluorophenyl)methyl]oxy}phenyl)methyl]-2-furancarboxylate]", "values": [
      {"measurement": "functional pKi value", "value": "≤ 6.5"}
    ]},
    {"smiles": "O=C([O-])c1ccc(Cc2cc(Cl)ccc2OCc2ccccn2)o1.[Na+]", "note": "[Example 26, Sodium 5-({5-chloro-2-[(2-pyridinylmethyl)oxy]phenyl}methyl)-2-furancarboxylate]", "values": [
      {"measurement": "functional pKi value", "value": "≤ 6.5"},
      {"measurement": "activity in a functional assay", "value": "no activity"}
    ]},
    {"smiles": "O=C([O-])c1ccc(Cc2cc(Cl)ccc2OCc2cccnc2)o1.[Na+]", "note": "[Example 27, Sodium 5-({5-chloro-2-[(3-pyridinylmethyl)oxy]phenyl}methyl)-2-furancarboxylate]", "values": [
      {"measurement": "functional pKi value", "value": "≤ 6.5"},
      {"measurement": "activity in a functional assay", "value": "no activity"}
    ]},
    {"smiles": "O=C([O-])c1ccc(Cc2cc(Cl)ccc2OCc2ccncc2)o1.[Na+]", "note": "[Example 28, Sodium 5-({5-chloro-2-[(4-pyridinylmethyl)oxy]phenyl}methyl)-2-furancarboxylate]", "values": [
      {"measurement": "functional pKi value", "value": "≤ 6.5"}
    ]},
    {"smiles": "CC(C)COc1ccc(Cl)cc1Cc1ccc(NC(=O)OC(C)(C)C)o1", "note": "[Example 29, 1,1-Dimethylethyl[5-({5-chloro-2-[(2-methylpropyl)oxy]phenyl}methyl)-2-furanyl]carbamate]", "values": [
      {"measurement": "functional pKi value", "value": "≤ 6.5"}
    ]},
    {"smiles": "Cc1cc(NC(=O)OC(C)(C)C)oc1Cc1cc(Cl)ccc1OCC(C)C", "note": "[Example 30, 1,1-Dimethylethyl[5({5-chloro-2-[(2-methylpropyl)oxy]phenyl}methyl)-4-methyl-2-furanyl]carbamate]", "values": [
      {"measurement": "functional pKi value", "value": "≤ 6.5"}
    ]},
    {"smiles": "Cc1cc(C(=O)NCc2ccccc2)oc1Cc1cc(Cl)ccc1OCc1ccccc1", "note": "[Example 31, 5-({5-Chloro-2-[(phenylmethyl)oxy]phenyl}methyl)-4-methyl-N-(phenylmethyl)-2-furancarboxamide]", "values": [
      {"measurement": "functional pKi value", "value": "≤ 6.5"}
    ]},
    {"smiles": "Cc1cc(C(=O)NCc2ccccc2)oc1Cc1cc(Cl)ccc1OCC(C)C", "note": "[Example 32, 5-({5-Chloro-2-[(2-methylpropyl)oxy]phenyl}methyl)-4-methyl-N-(phenylmethyl)-2-furancarboxamide]", "values": [
      {"measurement": "functional pKi value", "value": "≤ 6.5"}
    ]},
    {"smiles": "CC(C)COc1ccc(Cl)cc1Cc1ccc(C(=O)Nc2ccccc2)o1", "note": "[Example 34, 5-({5-Chloro-2-[(2-methylpropyl)oxy]phenyl}methyl)-N-phenyl-2-furancarboxamide]", "values": [
      {"measurement": "functional pKi value", "value": "≤ 6.5"},
      {"measurement": "activity in a functional assay", "value": "no activity"}
    ]},
    {"smiles": "O=C(NS(=O)(=O)c1ccccc1)c1ccc(Cc2cc(Cl)ccc2OCc2ccc(F)cc2F)o1", "note": "[Example 35, 5-[(5-Chloro-2-{[(2,4-difluorophenyl)methyl]oxy}phenyl)methyl]-N-(phenylsulfonyl)-2-furancarboxamide]", "values": [
      {"measurement": "functional pKi value", "value": "≤ 6.5"}
    ]},
    {"smiles": "O=C(Nc1c(F)cccc1F)c1ccc(Cc2cc(Cl)ccc2OCc2ccc(F)cc2F)o1", "note": "[Example 36, 5-[(5-Chloro-2-{[(2,4-difluorophenyl)methyl]oxy}phenyl)methyl]-N-(2,6-difluorophenyl)-2-furancarboxamide]", "values": [
      {"measurement": "functional pKi value", "value": "≤ 6.5"}
    ]},
    {"smiles": "CC(C)COc1ccc(Cl)cc1Cc1ccc(C(=O)NCc2ccc(F)cc2)o1", "note": "[Example 37]", "values": [
      {"measurement": "functional pKi value", "value": "≤ 6.5"}
    ]},
    {"smiles": "CC(C)COc1ccc(Cl)cc1Cc1ccc(C(=O)NCc2ccc(C(F)(F)F)cc2)o1", "note": "[Example 38, 5-({5-Chloro-2-[(2-methylpropyl)oxy]phenyl}methyl)-N-{[4-(trifluoromethyl)phenyl]methyl}-2-furancarboxamide]", "values": [
      {"measurement": "functional pKi value", "value": "≤ 6.5"}
    ]}
  ]
}
